Data taken from PMC9337993.
Construct, isoform or probe ends are uncertain for at least one entry.

Assays:
[1] = molecular target: SynZur (Zn2SynZur as purified + Zn1SynZur after EDTA) (Synechococcus sp. WH8102) (UniProt Q7U3N0); experiment: EMSA; details: EMSA: 10 mM Tris pH 8, 50 mM KCl, 2 mM MgCl2, 5% glycerol, 0.05 mg/ml BSA, 1 mM DTT, 3 mM spermidine, 5 ng DNA in 10 ul, room temperature 30 min, gel at 4 C, recombinant protein, label: none (SYBR Green stain), probe letters rebuilt from the primers and the genome
[2] = molecular target: SynZur (Zn2SynZur as purified + Zn1SynZur after EDTA) (Synechococcus sp. WH8102) (UniProt Q7U3N0); experiment: EMSA, Ferguson plot; details: binds as one dimer; EMSA: 10 mM Tris pH 8, 50 mM KCl, 2 mM MgCl2, 5% glycerol, 0.05 mg/ml BSA, 1 mM DTT, 3 mM spermidine, 5 ng DNA in 10 ul, room temperature 30 min, gel at 4 C; recombinant protein; label: none (SYBR Green stain); probe letters rebuilt from the primers and the genome

Measured: binding result

GTTCCATCCACAGCCACAACGCTTGGCTGGGCCGCCTGCGCCGCGACTGAACAACCCGAGACAACGCCCAGGGCGACCGCCAGACCCTTGACCAAAAGCGCAGGACGCGCCATGACACTCGAATGAGAATGATTATCATTTTTACAGTTCAACGGGTTGGCGCAACCCAATCGCGACCGCATGATGAAGTGAACCCACCGCAGCTGTGACAGAACCGCATTCGTCCATCAAGGGGCATCTAGCAGCCAGGAATCTC (double strand) [PznuA promoter (znuC-znuA intergenic fragment)]
binds: [1]; EDTA-treated SynZur with Zn2+ added back | [1]; Zn2SynZur as purified, 100% binding at 100 nM protein | [2]
